In PMC5996148:
The list shows a part of the results. For some of these results: Construct or isoform of the protein are uncertain.

Tests used:
Assay in all cases: protein microarray (ProtoArray v5.0), streptavidin-Alexa Fluor 647
Settings in all cases: 3'-biotin; 20 mM Tris (pH 7.5), 5 mM MgCl2, 100 mM KCl, 0.1% Tween-20, A/T-rich and random oligonucleotide blockers; temperature not stated; high values mean tight binding
[1] = system: Vesicle-trafficking protein SEC22b (human)
[2] = system: Visinin-like protein 1 (human)
[3] = system: Vitelline membrane outer layer protein 1 homolog (human)
[4] = system: WAS protein family homolog 1 (human)
[5] = target: T1, WBP2 (UniProt Q969T9)
T1 sequence: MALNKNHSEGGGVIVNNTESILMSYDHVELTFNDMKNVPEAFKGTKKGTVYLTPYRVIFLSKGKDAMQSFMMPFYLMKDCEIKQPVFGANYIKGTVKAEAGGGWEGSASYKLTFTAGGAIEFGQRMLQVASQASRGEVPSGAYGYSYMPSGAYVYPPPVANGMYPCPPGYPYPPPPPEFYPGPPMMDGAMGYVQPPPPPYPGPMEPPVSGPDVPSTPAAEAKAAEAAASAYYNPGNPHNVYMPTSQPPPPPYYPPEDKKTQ

[6] = system: WD repeat-containing protein 55 (human)
[7] = system: WD repeat-containing protein mio (human)
[8] = system: WDFY1 (human)
[9] = system: WDFY3 (human)
[10] = system: WDR1 (human)

GGGAGGCTGAGGCAGG [G4-1 biotinylated (PQS2)]
binding signal [1]: -0.352 z-score
binding signal [2]: -0.353 z-score
binding signal [3]: -0.319 z-score
binding signal [4]: -0.36 z-score
binding signal [5]: -0.345 z-score
binding signal [6]: -0.334 z-score
binding signal [7]: -0.236 z-score
binding signal [8]: -0.347 z-score
binding signal [9]: -0.314 z-score
binding signal [10]: -0.337 z-score
